Measurements published in patent US12053506B2, “Romo1-derived antimicrobial peptides and variants thereof” (priority 2019, dated 2024).
Not every detail of the peptide structures is certain; ends, links or a residue may be inferred. No end group written: not given here.

Tests used:
Conditions in all cases: Tables 11-15, no unit printed
[1] = test system: Staphylococcus aureus (ATCC 29213); format: cell-based
Description: (§1) Romo1 protein comprises two α-helices. The present inventors synthesized the α-helix 2 region having both hydrophilicity and hydrophobicity, and evaluated the antibacterial activity thereof using minimum bactericidal concentration (MBC) assay. The α-helix 2 region was named KU-5279 (the 52-79 amino acid region of Romo1 protein). Then, in order to identify peptides that are beneficial for human application and have excellent antibacterial activity, the present inventors synthesized several peptides comprising a sequence of contiguous amino acids starting at any amino acid selected from the 52-79 amino acid region of Romo1 protein, and comparatively evaluated the antibacterial activities of the peptides by minimum bactericidal concentration assay (See Table 1 below for information on each peptide). Evaluation of the antibacterial activity of each peptide by minimum bactericidal concentration assay was specifically performed as follows. First, each of Pseudomonas aeruginosa (ATCC 27853) and Staphylococcus aureus (ATCC 29213) was cultured in 3% (w/v) TSB (Tryptic Soy Broth) liquid medium at 37° C. and 200 rpm for 4 hours, and then further cultured under the same conditions for 3 hours to a concentration of 5×10^6 CFU/ml. […]

[2] = test system: Pseudomonas aeruginosa (ATCC 27853); format: cell-based
Description: as §1

[3] = test system: methicillin-resistant Staphylococcus aureus (ATCC 33591)
Description: First, each of Pseudomonas aeruginosa (ATCC 27853) and Staphylococcus aureus (ATCC 29213) was cultured in 3% (w/v) TSB (Tryptic Soy Broth) liquid medium at 37° C. and 200 rpm for 4 hours, and then further cultured under the same conditions for 3 hours to a concentration of 5×10^6 CFU/ml. Strain solutions were prepared by diluting each of the further cultured strains with SP (sodium phosphate; 10 mM sodium phosphate, 1% TSB) buffer to a final concentration of 2×10^5 CFU/ml.
Then, each peptide at varying concentrations (0 μg/ml to 300 μg/ml) was dispensed into each well of a 96-well microplate, and 100 μl (1×10^5 CFU/ml) of each of the prepared strain solutions was added thereto, mixed therewith, and allowed to react with the peptide in an incubator at 37° C. for 1 hour.
In addition, 30 g/L of TS (tryptic soy) and 15 g/L of agar were dissolved in distilled water and sterilized, and then 25 ml of the solution was poured onto a 100 mm round plate and solidified at room temperature for one day or more, thereby preparing a TS agar plate. 10 μl of each reaction solution of the peptide and the strain was plated on the TS agar plate at a constant size, and incubated in an incubator at 37° C. for 18 hours, and then colony formation on the plate was checked. […]

CRPA = test: MBC, evaluation of antibacterial activities of KU-5878 variants; format: cell-based
Description: Variants were prepared by deleting one amino acid from the amino acid sequence of KU-5878 (SEQ ID NO: 13), and the antibacterial activities thereof were evaluated.
Variants were prepared by deleting two or more amino acids from the amino acid sequence of KU-5878 (SEQ ID NO: 13), and the antibacterial activities thereof were evaluated.
One amino acid in the amino acid sequence of KU-5878 (SEQ ID NO: 13) was substituted, and the antibacterial activities of the peptides were evaluated.
Substitutions of Q62K, S63K and T66K were sequentially added to the amino acid sequence of KU-5878-T59K, and the antibacterial activities of the peptides were evaluated.
An amino acid repeat sequence was added to the C-terminus of KU-5878, and the antibacterial activities of the peptides were evaluated. According to Table 15 below, when the R (arginine) repeat sequence or K (lysine) sequence was added to the C-terminus of KU-5878, the antibacterial activity of the peptide increased.

In the case of KKMMKKGGKFGTFMAIGMGIR [KU-5878-K4], the MBC Staphylococcus aureus [1] is reported as 3 µg/mL, the MBC Pseudomonas aeruginosa [2] is reported as 4 µg/mL and the MBC MRSA [3] is reported as 4 µg/mL. The MBC CRPA (CRPA) was 3 µg/mL.
